{"source": "the supplement of paper PMC8728848", "binders": {"B1": {"name": "AFL6 (Aspergillus fumigatus), Q4WKJ1 (protein)", "chain": "MSFHLTAEDIRIEDGHRLVARLRNADGDLQDASIDLNTCLGNDNGHFQWDGVDFSHSAQDVHFAIEGGGQVPVLRAQLANQDGEFQDADVNLSERIENINGEFVFH"}}, "test_in_all_cases": "glycan array binding signal (z-score within array); higher = stronger binding", "conditions_in_all_cases": "glycan notation: IUPAC condensed, linker removed", "key": {"[1]": {"molecular_target": "Neu5Gc(a2-8)Neu5Gc(a2-3)Gal(b1-4)GlcNAc(b1-3)Gal(b1-4)GlcNAc", "method_in_brief": "(§1)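 From the Consortium for Functional Glycomics database, 3228 arrays were curated, keeping only those whose protein sequence was available. Binding is given as a within-array Z-score averaged across arrays sharing a protein sequence and across linkers. Negative Z-scores can be read as non-binding.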"}, "[2]": {"molecular_target": "Neu5Gc(a2-8)Neu5Gc(a2-6)Gal(b1-4)GlcNAc", "method_in_brief": "as §1"}, "[3]": {"molecular_target": "Neu5Gc(b2-6)Gal(b1-4)GlcNAc", "method_in_brief": "as §1"}}, "note": "The other results are listed elsewhere or left out."}
{"binder": "B1", "values": [{"measurement": "glycan array binding signal (z-score)", "setting": "[1]", "value": -0.331}, {"measurement": "glycan array binding signal (z-score)", "setting": "[2]", "value": 0.073}, {"measurement": "glycan array binding signal (z-score)", "setting": "[3]", "value": 0.534}]}
